# Experimental data taken from PubChem BioAssay AID1347423 (Functional Genomics Laboratory (NCATS/FGL), 2020).
# Among all 52,000 sequences or so, about 210 (0.4%) were called active.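 How the source made its calls: active means gene whose silencing raises cell survival under the drug, median off-target-corrected z-score across its silencing RNAs 2 or more; inactive means the rest.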 This is one part of the list.
# Test: Resistance to Poly (ADP-Ribose) Polymerase inhibitor: Gene Identification via Genome-wide siRNA Screen
# Conditions: mouse BRCA2 R2336H ES cells, olaparib, CellTiter-Glo viability; stronger effect = higher value
# Procedure, shortened: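 Mouse BRCA2 R2336H ES cells were reverse-transfected with siRNA (20 nM final), treated at 48 h with 500 nM olaparib, and read by CellTiter-Glo after 72 h. Scores: MAD-based z per siRNA, median per gene, seed off-target correction.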
row,Sequence,z-score
1,CCAUGAGUAUCAAGUCAAUTT against 9-Sep,inactive: 1.55
2,GGAGUAUUACCUGGUUAAGTT against Suv39h1,inactive: -1.42
3,GGCAUAGCUUGGAAUGGAATT against Npas2,inactive: 0.622
4,GGACACUGCGCAAGACUUCTT against Trim35,inactive: 0.818
5,GGACACUUCCAAGUAUUGGTT against Tns,inactive: 0.0153
6,GGAAGUAUGGAAGUCAAGUTT against Defb9,inactive: 2.12
7,GGAGCACAUGUCCUACAUCTT against Wnt5b,inactive: -0.569
8,GGUGAUCAUGGCAAGAUGGTT against Fgf3,inactive: -2.42
9,GGUCUUCAGAAUCCUCAAUTT against Ap1g2,inactive: 0.846
10,GUAGAAGAUGGAAUUUUUGTT against 3110001N18Rik,inactive: 0.315
11,GGUUGUAACUUGUAAGGCATT against Ibrdc2,inactive: 1.56
12,AGAACAUGGAGGUUAAGAUTT against 6330514A18Rik,inactive: 1.11
13,GGGACACAUACUGUAGUAUTT against Pspc1,inactive: -1.9e-10
14,GCCAGUAGAUUACUUCAUUTT against Cnnm3,inactive: -1.45
15,GCACGUGAACAACUCCAACTT against BC050811,inactive: -0.0823
16,GGGAAUCAAUGAAAAUGUGTT against Pcdh8,inactive: 0.152
17,GGUCCUAUGGAAAAAGAAATT against Msr1,inactive: -0.675
18,GCUGACGGACGAAUGCUACTT against Sema6c,inactive: 2.12
19,GACUAACCAGAUGAAAGUCTT against V1rc3,inactive: 0.988
20,GGACAACUGCUACGAAGUGTT against Zfp366,inactive: 0.868
21,GGUGGAGACAGAAAUCCAATT against Amot,inactive: 0.963
22,GGAGUUUUAGGAUAUUCGATT against Adcyap1r1,inactive: 0.495
23,GCUCUCCCAUCUUUUCUAUTT against Lenep,inactive: -0.476
24,GCACUUUUGUAAAAAUCACTT against D6Ertd245e,inactive: -0.0742
25,CACGGGCAUCCUUGACUCCTT against Mbp,inactive: 0.994
26,GCACGAAGAACCACACAAGTT against 5830484A20Rik,inactive: -0.63
27,GGGAUGACCUGCCAUUCAUTT against Atp7a,inactive: 0.448

# Reformatted as tab-separated lines: entries from further up.
row	Sequence	z-score
2	GGAGUAUUACCUGGUUAAGTT against Suv39h1	inactive: -1.42
3	GGCAUAGCUUGGAAUGGAATT against Npas2	inactive: 0.622
4	GGACACUGCGCAAGACUUCTT against Trim35	inactive: 0.818
5	GGACACUUCCAAGUAUUGGTT against Tns	inactive: 0.0153
7	GGAGCACAUGUCCUACAUCTT against Wnt5b	inactive: -0.569
8	GGUGAUCAUGGCAAGAUGGTT against Fgf3	inactive: -2.42
12	AGAACAUGGAGGUUAAGAUTT against 6330514A18Rik	inactive: 1.11
13	GGGACACAUACUGUAGUAUTT against Pspc1	inactive: -1.9e-10
15	GCACGUGAACAACUCCAACTT against BC050811	inactive: -0.0823
17	GGUCCUAUGGAAAAAGAAATT against Msr1	inactive: -0.675
21	GGUGGAGACAGAAAUCCAATT against Amot	inactive: 0.963
23	GCUCUCCCAUCUUUUCUAUTT against Lenep	inactive: -0.476
24	GCACUUUUGUAAAAAUCACTT against D6Ertd245e	inactive: -0.0742
25	CACGGGCAUCCUUGACUCCTT against Mbp	inactive: 0.994
27	GGGAUGACCUGCCAUUCAUTT against Atp7a	inactive: 0.448

# (next part)

row,Sequence,z-score
1,CCACUGUUUAAUAACCCUATT against Sc5d,inactive: -1.57
2,GCAAAGCAUUGCUCUGAGGTT against Msx1,inactive: 0.43
3,GCGGAAGUUAGAGUCGCUGTT against AK122525,inactive: 0.105
4,GGUUUGUAUGCUAUAGUUUTT against Cldn11,inactive: -0.628
5,GGGUCUAUUUAUUUAGUAGTT against Alg8,inactive: -0.485
6,GGAACUUACACAUUUGUUCTT against Tnfsf13b,inactive: -0.466
7,GGUCUAAAGUACAUCCACUTT against Mapk13,inactive: 1.4
8,GGGAAUGAAAAGUCAAAAGTT against Stard7,inactive: 0.371
9,GGUGAUCAACCUGUACAAGTT against Gga1,inactive: -0.716
10,CCCAACAAAUUGAAACAUATT against D330013L20Rik,inactive: 1.56
11,GGUUAAAGUGUAUUUACAGTT against Fkbp14,inactive: 0.226
12,UGACAUAUCUUAAAUGUGGTT against Tas2r121,inactive: 0.102
13,CCCAUUUUGAAGUGCUACCTT against Cyp27b1,inactive: 0.733
14,CCCUCCAUGGAAAUGACAUTT against Slit3,inactive: 0.0338
15,GGCUGUCUUCAUCUUAGAUTT against Copz2,inactive: 1.24
16,GGGAGCAACUGUGUCAAAUTT against Ocsp,inactive: 1.73
17,CGACGACAUCAUAAAUUUCTT against Rapgef1,inactive: 1.39
18,GGGAUGCUGUAGAUGGAAUTT against Olfr978,inactive: 1.41
19,CCUGUCCAAUCAUCACAAGTT against 9130022K13Rik,inactive: -0.395
20,GCACUUGACAAGCAACAGUTT against Jup,inactive: -0.42
21,GGUUAAAGUCUGUGGAUUUTT against Laf4l,inactive: 0.163
22,CCACUGGACAGGAACAAAGTT against Rims1,inactive: 0.0579
23,GGACUUUGAUCUGGAGCCATT against C1rl,inactive: -1.36
24,GGCAUCCAAUAAACAUAUUTT against Selpl,inactive: -1.53
25,GGUACACAAAUGCUCGGGATT against Rnf130,inactive: 0.0469
26,GGCCUCUGACUUUAAAGGCTT against 4930553M18Rik,inactive: 0.206
